In publication PMC9723177:
No constants are given. Whether binding was seen depends on the method and setting. In cells and extracts the contact can be indirect. These calls come from enrichment with a bait or labelling near it, and not all partners need be listed. Sequences can lack the tags named with a protein.

T1: STAM-binding protein (STAMBP) (human (endogenous in MDA-MB-231 and BT549)) (UniProt O95630)
T1 sequence: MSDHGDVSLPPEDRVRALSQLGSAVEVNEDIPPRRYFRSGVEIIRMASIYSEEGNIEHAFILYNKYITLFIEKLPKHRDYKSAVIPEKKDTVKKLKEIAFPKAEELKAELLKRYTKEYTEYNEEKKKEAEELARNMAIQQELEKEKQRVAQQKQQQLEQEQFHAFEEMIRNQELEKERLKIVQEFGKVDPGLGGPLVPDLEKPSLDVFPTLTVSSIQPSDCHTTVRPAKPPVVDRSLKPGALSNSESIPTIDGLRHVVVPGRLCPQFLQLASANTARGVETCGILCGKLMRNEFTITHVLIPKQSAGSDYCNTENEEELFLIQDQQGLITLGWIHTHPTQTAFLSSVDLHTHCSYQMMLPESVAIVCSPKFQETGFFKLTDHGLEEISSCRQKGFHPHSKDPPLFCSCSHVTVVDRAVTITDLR

B1: RBM14 (protein, UniProt Q96PK6 1-669)
chain: MKIFVGNVDGADTTPEELAALFAPYGTVMSCAVMKQFAFVHMRENAGALRAIEALHGHELRPGRALVVEMSRPRPLNTWKIFVGNVSAACTSQELRSLFERRGRVIECDVVKDYAFVHMEKEADAKAAIAQLNGKEVKGKRINVELSTKGQKKGPGLAVQSGDKTKKPGAGDTAFPGTGGFSATFDYQQAFGNSTGGFDGQARQPTPPFFGRDRSPLRRSPPRASYVAPLTAQPATYRAQPSVSLGAAYRAQPSASLGVGYRTQPMTAQAASYRAQPSVSLGAPYRGQLASPSSQSAAASSLGPYGGAQPSASALSSYGGQAAAASSLNSYGAQGSSLASYGNQPSSYGAQAASSYGVRAAASSYNTQGAASSLGSYGAQAASYGAQSAASSLAYGAQAASYNAQPSASYNAQSAPYAAQQAASYSSQPAAYVAQPATAAAYASQPAAYAAQATTPMAGSYGAQPVVQTQLNSYGAQASMGLSGSYGAQSAAAATGSYGAAAAYGAQPSATLAAPYRTQSSASLAASYAAQQHPQAAASYRGQPGNAYDGAGQPSAAYLSMSQGAVANANSTPPPYERTRLSPPRASYDDPYKKAVAMSKRYGSDRRLAELSDYRRLSESQLSFRRSPTKSSLDYRRLPDAHSDYARYSGSYNDYLRAAQMHSGYQRRM
B2: retinoic acid-induced 14 (RAI14) (protein, UniProt Q9P0K7 1-980)
chain: MKSLKAKFRKSDTNEWNKNDDRLLQAVENGDAEKVASLLGKKGASATKHDSEGKTAFHLAAAKGHVECLRVMITHGVDVTAQDTTGHSALHLAAKNSHHECIRKLLQSKCPAESVDSSGKTALHYAAAQGCLQAVQILCEHKSPINLKDLDGNIPLLLAVQNGHSEICHFLLDHGADVNSRNKSGRTALMLACEIGSSNAVEALIKKGADLNLVDSLGYNALHYSKLSENAGIQSLLLSKISQDADLKTPTKPKQHDQVSKISSERSGTPKKRKAPPPPISPTQLSDVSSPRSITSTPLSGKESVFFAEPPFKAEISSIRENKDRLSDSTTGADSLLDISSEADQQDLLSLLQAKVASLTLHNKELQDKLQAKSPKEAEADLSFDSYHSTQTDLGPSLGKPGETSPPDSKSSPSVLIHSLGKSTTDNDVRIQQLQEILQDLQKRLESSEAERKQLQVELQSRRAELVCLNNTEISENSSDLSQKLKETQSKYEEAMKEVLSVQKQMKLGLVSPESMDNYSHFHELRVTEEEINVLKQDLQNALEESERNKEKVRELEEKLVEREKGTVIKPPVEEYEEMKSSYCSVIENMNKEKAFLFEKYQEAQEEIMKLKDTLKSQMTQEASDEAEDMKEAMNRMIDELNKQVSELSQLYKEAQAELEDYRKRKSLEDVTAEYIHKAEHEKLMQLTNVSRAKAEDALSEMKSQYSKVLNELTQLKQLVDAQKENSVSITEHLQVITTLRTAAKEMEEKISNLKEHLASKEVEVAKLEKQLLEEKAAMTDAMVPRSSYEKLQSSLESEVSVLASKLKESVKEKEKVHSEVVQIRSEVSQVKREKENIQTLLKSKEQEVNELLQKFQQAQEELAEMKRYAESSSKLEEDKDKKINEMSKEVTKLKEALNSLSQLSYSTSSSKRQSQQLEALQQQVKQLQNQLAECKKQHQEVISVYRMHLLYAVQGQMDEDVQKVLKQILTMCKNQSQKK

Molecular target: T1, STAM-binding protein (STAMBP) (human (endogenous in MDA-MB-231 and BT549))
Assay: affinity purification with mass spectrometry; MDA-MB-231 cell lysates incubated with beads conjugated with anti-STAMBP antibodies; immunoprecipitates analyzed by mass spectrometry

| Binder | binding |
| --- | --- |
| B1 | binds |
| B2 | binds |
